Source: patent US20170050044A1, “Integumentary System Therapy” (priority 2015, published 2017)
For part of these data: For at least one compound, name, drawing or mass did not settle the structure. Some entries share one result that the patent states for a list of compounds.

Experiments:
[1] = two-electron redox system; cited from earlier work
[2] = system: skin of a human volunteer; experiment: Natural exfoliation and epidermal maturation remove intradermal dye from the skin (Example 2); conditions: visual

## CN(C)c1ccc2nc3ccc(=[N+](C)C)cc-3sc2c1 [methylene blue]
[1]
  standard reduction potential: +0.01 V
[2]; about 4 days after removal of the electrodes
  reduction in colour intensity in skin: at least 80%
[2]; about 7 days after removal of the electrodes
  reduction in colour intensity in skin: at least 90%
